Some of the results follow.
Target: OsWRKY34 (Oryza sativa, UniProt Q0JBA9 1-250)
Assay: protein-binding microarray (RPBM); PBS, 2% BSA, 51.3 ng/ul salmon testes DNA, 50 uM zinc acetate, 200 nM TF, 25 C, 1 h; high values mean tight binding
Settings: protein: recombinant; tags: N-terminal polyhistidine and DsRed monomer fusion (pET32a); label: CyDye5-dUTP incorporated in the synthesized complementary strand; 3' TTTTT single-stranded linker to array surface; dsDNA, one strand shown
In short: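 For the binding signal, per-feature fluorescence intensity was read in arbitrary units on an Axon 4000B scanner. Before scanning, a 2% BSA-blocked custom Agilent array made double-stranded with Cy5-dUTP was washed after 1 h at 25 °C with 200 nM protein and 50 µM zinc acetate. The proteins were Ni–NTA-purified transcription factors with N-terminal polyhistidine and DsRed fusions, expressed in E. coli BL21-CodonPlus.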

Chains of the proteins cited; added tags and fusions are not shown.
UniProt Q0JBA9, entry or part of it: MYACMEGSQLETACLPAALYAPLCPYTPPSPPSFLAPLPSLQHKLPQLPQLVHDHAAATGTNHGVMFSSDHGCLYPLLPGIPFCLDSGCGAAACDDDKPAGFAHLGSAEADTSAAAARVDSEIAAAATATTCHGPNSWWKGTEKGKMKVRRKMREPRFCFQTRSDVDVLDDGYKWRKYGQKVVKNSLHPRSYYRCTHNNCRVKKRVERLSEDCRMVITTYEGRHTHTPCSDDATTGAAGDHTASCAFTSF

Sequence	binding signal
GAGTTCATCCTTATTGCTTTCTGTCTTGACATTTATCTTGCGGAGTCACCTAGTGCAG	10100 ± 628 fluorescence intensity (a.u.)
GATTTTATATTAGGGTTCTTGTACAGTTTAAGCACCGACACGGAGTCACCTAGTGCAG	8490 fluorescence intensity (a.u.)
CCCGAGCTAATTCGCGTTAGCTTCCACCCTGTAACCTTTCCGGAGTCACCTAGTGCAG	10000 fluorescence intensity (a.u.)
ATATGTTGTTTGACTTTTTTCATAGTCAGAAGTCTATTGGCGGAGTCACCTAGTGCAG	19000 fluorescence intensity (a.u.)
GTGGCTGGTTTGACTAGGTCTCCATCCCACGTGGCATTGACGGAGTCACCTAGTGCAG	8420 fluorescence intensity (a.u.)
CATTTCTGTCGTGCCATCATCTGCATCCTGCACGCCGCATCGGAGTCACCTAGTGCAG	14400 fluorescence intensity (a.u.)
GATCTCGCGCATTGCTGTAGGAATTTATAGATCTATATATCGGAGTCACCTAGTGCAG	8140 fluorescence intensity (a.u.)
CTCAGGTTGGTATCTCTTTCATTATGCCCCTTTCACATTTCGGAGTCACCTAGTGCAG	8950 fluorescence intensity (a.u.)
AAATGTAACGCTAATGACCACTTCTTATTCCATCATTTAACGGAGTCACCTAGTGCAG	9100 fluorescence intensity (a.u.)
TTTTTTTATCTTGTTGTGTGTGCTCCAACTAGCCATTCTTCGGAGTCACCTAGTGCAG	9090 fluorescence intensity (a.u.)
AGTCGAGTCGTGTCGTGTCCCCGGATCGCACTTGCCCCTGCGGAGTCACCTAGTGCAG	8380 fluorescence intensity (a.u.)
GAGATGCGGAGGGAGGGGAATGTTGGTGTGGCGGTGGCGACGGAGTCACCTAGTGCAG	14000 fluorescence intensity (a.u.)
ACCAGGTTAATATTTTCACGCAGGAGTCAGGTCAATTGAACGGAGTCACCTAGTGCAG	9600 fluorescence intensity (a.u.)
TACTTAATTAATCATGCGCTAATGAACCGTTCCGTTTTTCCGGAGTCACCTAGTGCAG	8570 fluorescence intensity (a.u.)
CAATAAGTTACATATCCTAGGCTGTGACGAGTTGGATGAACGGAGTCACCTAGTGCAG	9350 fluorescence intensity (a.u.)
ACCAATAGCTAGCAATACTTGCCATCATATATACCTGGGCCGGAGTCACCTAGTGCAG	8020 fluorescence intensity (a.u.)
GCTCGTCGCCGTCTTGCTCGCCACCGCTCGCCGCCGCCGCCGGAGTCACCTAGTGCAG	10400 fluorescence intensity (a.u.)
AGTAATTTATGTTTGACTATTTTTTTAAAAATTTTTTATGCGGAGTCACCTAGTGCAG	10800 fluorescence intensity (a.u.)
TCACTCTTATTTATTACCAAGCTTGCTATTATCTTAAAATCGGAGTCACCTAGTGCAG	8750 fluorescence intensity (a.u.)
TCGCGGTTGCTTCCTTGCTGTTGAACATTTTTTTTTCTCTCGGAGTCACCTAGTGCAG	9220 fluorescence intensity (a.u.)
CCAGCCCACTGATTCCTCACCGAATTTTTTCATTTTTTTTCGGAGTCACCTAGTGCAG	9700 fluorescence intensity (a.u.)
CTTCAGAGAGGAGCAAAGCGTTGACTTTCATTGGAGACAACGGAGTCACCTAGTGCAG	16000 fluorescence intensity (a.u.)
CCTTCCTCTTCGCACACCTCCACCGACCGCCGCCGATCGTCGGAGTCACCTAGTGCAG	8580 fluorescence intensity (a.u.)
GCTCGCTCATTTTCACACCCAAGCGGCCAAGCCCAACTTACGGAGTCACCTAGTGCAG	8810 fluorescence intensity (a.u.)
GTGCTCTGCTCCAAGTTTTGTTCTGAGGTATACCTATGTACGGAGTCACCTAGTGCAG	8120 fluorescence intensity (a.u.)
ATCTTCTTCAACAGTTGCACTTCATTCGTCGCTTACTCCTCGGAGTCACCTAGTGCAG	13500 fluorescence intensity (a.u.)
TTTTTATTTTTATTTCATTTTTTGATATTTTTTTCACACTCGGAGTCACCTAGTGCAG	9820 fluorescence intensity (a.u.)

Another view of some results above.

| Sequence | binding signal |
| --- | --- |
| CAATAAGTTACATATCCTAGGCTGTGACGAGTTGGATGAACGGAGTCACCTAGTGCAG | 9350 fluorescence intensity (a.u.) |
| TTTTTATTTTTATTTCATTTTTTGATATTTTTTTCACACTCGGAGTCACCTAGTGCAG | 9820 fluorescence intensity (a.u.) |

Next records follow.

Sequence	binding signal
CAGCCCTAGCGTTCTCCTCCTACCCCGTCTCCGGACTCCGCGGAGTCACCTAGTGCAG	9370 fluorescence intensity (a.u.)
CCTCTTTTCTCTCTCTTCTTCTTTGTAAAGCATCTTTGAACGGAGTCACCTAGTGCAG	10600 fluorescence intensity (a.u.)
GTCGTCCAATGGCATGCCTCGCCCTGATTTTTATCGGGCCCGGAGTCACCTAGTGCAG	12700 fluorescence intensity (a.u.)
ACTTTTTAATATCTACACTAAATTTTTAGTACTTATCATACGGAGTCACCTAGTGCAG	8210 fluorescence intensity (a.u.)
GCACCGTACCGTCATGCCGTTAGTCTCGAGCTTTCTTCGTCGGAGTCACCTAGTGCAG	9740 fluorescence intensity (a.u.)
CGACCCGTTTCCTTCCAACACAAGGCACCTCCACGACGATCGGAGTCACCTAGTGCAG	8090 fluorescence intensity (a.u.)
GGGCGCATGATTCGATCCCTTGTTGTTTGCTGTTGTTGCCCGGAGTCACCTAGTGCAG	15300 fluorescence intensity (a.u.)
TCTCATCGACCGCCCACTTCTTCATTCTTCACCCACCGGACGGAGTCACCTAGTGCAG	10900 fluorescence intensity (a.u.)
ACGCACTCGTCTGACTTTTTTCCCGGGATTTGCTGAGGAACGGAGTCACCTAGTGCAG	9060 fluorescence intensity (a.u.)
CTTTTTTTCTCTTTCTTCAACTTTCTTTCGTCTCCCTTCTCGGAGTCACCTAGTGCAG	11500 fluorescence intensity (a.u.)
TGGGGATGCGGGGTGGCGCGGGAGGAGGGAGAGGACGGAGCGGAGTCACCTAGTGCAG	8670 fluorescence intensity (a.u.)
ATTGTCCATCCCATCCCATCTCAATCCTTTCTACCAAACACGGAGTCACCTAGTGCAG	9750 fluorescence intensity (a.u.)
CCAACCATTAGACCTCATTTGTTGTATTTTTTTTCTTTGGCGGAGTCACCTAGTGCAG	9300 fluorescence intensity (a.u.)
TAATTGCATTCCTATCTTCATCTGTTTCATTGGCACATTGCGGAGTCACCTAGTGCAG	8620 fluorescence intensity (a.u.)
CGTCGCATCCCGCCCAAATTTGGCAGCTCTTCATCTCACCCGGAGTCACCTAGTGCAG	9690 fluorescence intensity (a.u.)
GTCTTACCCTTGCTCAATTGATTCTTTCTACAGATGGCACCGGAGTCACCTAGTGCAG	10900 fluorescence intensity (a.u.)
GATGCAGCATCTTGTTTCTTCATCTGCGGTTGACTAGGATCGGAGTCACCTAGTGCAG	8420 fluorescence intensity (a.u.)
AATGGGTTGTTGGGCCTTGACGCGCGCGGTGCGGCCCATTCGGAGTCACCTAGTGCAG	8470 fluorescence intensity (a.u.)
AATGTCAAATTTCAAGTGATTTATGGGGTGGTTTTTACAACGGAGTCACCTAGTGCAG	10700 fluorescence intensity (a.u.)
CGCCGTTTCTTCTGTAGTCGATTCCATCACACTTTTCGATCGGAGTCACCTAGTGCAG	8590 fluorescence intensity (a.u.)
TCTGCTTCCAAGGCCGCTGTTGTGAAGACCCTGGATGACTCGGAGTCACCTAGTGCAG	10100 fluorescence intensity (a.u.)
CATTGAATTGGATTCGTCGTTCGATCGTTGACCACCGACACGGAGTCACCTAGTGCAG	12500 fluorescence intensity (a.u.)
GCTTGTTTATCTTCTTCATCTTAAACAATGTTGGTTTTCTCGGAGTCACCTAGTGCAG	10300 fluorescence intensity (a.u.)
CTCTCTCTCTCCCTCTCTCTCGGGCGCCACCGCGCATGGCCGGAGTCACCTAGTGCAG	9030 fluorescence intensity (a.u.)
GTCATACTCTTGCCCTGTTAAATACAATAGTTTTTCTGCACGGAGTCACCTAGTGCAG	9310 fluorescence intensity (a.u.)
AAGTCTGAAGACGTACTCTTTTCTCTGCGCGCTAGCTGCTCGGAGTCACCTAGTGCAG	8040 fluorescence intensity (a.u.)
GCACAAGGTCCAGTTTGAGTTCGTTTGCAGTTCTACCTTTCGGAGTCACCTAGTGCAG	9080 fluorescence intensity (a.u.)

Reference: paper PMC7819943, “Rice protein-binding microarrays: a tool to detect cis-acting elements near promoter regions in rice”
